Experimental data as given in article PMC6770473, “Proximity ligation assay to study protein–protein interactions of proteins on two different cells” (Biotechniques, 2018).
Results are given in words; binding and its absence hold for the method and conditions named. Binding seen in cells or lysates may run through a third protein. Some binding calls cover weakened binding; strength is not graded here.

The chains behind the UniProt entries cited, without tags or fusion partners. Residues count along the entry.
UniProt P19256, residues 29-250: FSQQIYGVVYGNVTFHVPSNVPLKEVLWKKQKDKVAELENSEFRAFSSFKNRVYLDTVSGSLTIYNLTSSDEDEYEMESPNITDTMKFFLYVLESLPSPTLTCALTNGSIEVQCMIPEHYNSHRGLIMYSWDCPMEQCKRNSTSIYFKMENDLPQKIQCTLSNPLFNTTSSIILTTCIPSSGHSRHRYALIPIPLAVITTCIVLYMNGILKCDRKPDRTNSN
UniProt P06729, residues 25-351: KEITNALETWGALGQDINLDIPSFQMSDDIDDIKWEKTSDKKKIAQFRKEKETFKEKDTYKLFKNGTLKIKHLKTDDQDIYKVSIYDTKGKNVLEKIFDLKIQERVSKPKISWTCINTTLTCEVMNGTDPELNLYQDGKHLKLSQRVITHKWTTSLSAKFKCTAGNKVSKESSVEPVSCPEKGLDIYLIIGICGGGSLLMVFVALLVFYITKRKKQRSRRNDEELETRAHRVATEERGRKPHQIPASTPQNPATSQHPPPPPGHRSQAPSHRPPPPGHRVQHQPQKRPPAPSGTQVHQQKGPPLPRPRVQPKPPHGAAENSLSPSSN

Legend:
[1] = target: CD58 (human (endogenous in HFLS-RA)) (UniProt P19256); assay: proximity ligation; Jurkat cells (CD2) coated on chamber slides, HFLS-RA cells (CD58) added over them, co-cultured 48 h at 37°C, methanol-fixed; Duolink PLA with mouse anti-CD2 and goat anti-CD58 primary antibodies; no peptide
[2] = target: CD58 (human (endogenous in HFLS-RA)) (UniProt P19256); assay: proximity ligation; inhibition format: HFLS-RA cells treated with SFTI-a (50 nM to 100 μM) for 2 h at 4°C, then added over Jurkat cells; 48 h co-culture; loss of CD2-CD58 PLA red dots; only the binder purified

binding [1]	binding [2]	Molecule
binds	–	CD2 (from UniProt P06729 25-351) (receptor)
–	binds	CKASAPPSCYDGDD (head-to-tail cyclization; disulfide bond) [SFTI-a, Cyclo(…)]
